Experimental data: PubChem BioAssay AID1259308 (NCATS, 2017)
This is one part, drawn at random, of about 59,000 deposited reagents. About 1,510 of them (2.6%) were called active. 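Calls use total luciferase alone and ignore viability, so some active siRNAs may act by altering cell number.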 The numbers tell different reagents against one gene apart.

Purpose: 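Genes whose loss raises luciferase production in HEK293 cells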 (primary screen)
Cell system: human HEK293 embryonic kidney cells stably expressing firefly luciferase (HEK-CMV-Luc2-Hygro)
Knock-down reagent: single siRNA against human genes, 0.8 pmol siRNA per well
Time to read-out: 72 h
Measured: 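Reporter luminescence and viable-cell signal on separate replicate plates, given as percent of non-targeting control and median/MAD z-scores, plus per-cell luciferase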
Reading the numbers: total luciferase, z-score and total luciferase, % of control: higher = more reporter protein produced; luciferase per cell, z-score: higher = more reporter output per viable cell; viable cells, % of control: higher = more viable cells
Active means: 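An siRNA counts as active if its total luciferase robust z-score exceeds 3; genes with two or more such siRNAs out of three were retested with fresh siRNAs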
Calls: active = raised luciferase; inactive = no rise

Gene	reagent no.	total luciferase, z-score	total luciferase, % of control	luciferase per cell, z-score	viable cells, % of control	activity call
NCALD	1	-0.298	76	-0.473	96.2	inactive
NCALD	2	-0.178	78.3	-0.447	98.5	inactive
NCALD	3	0.206	86	0.108	93.4	inactive
CABS1	1	-0.287	76.2	-0.637	101	inactive
CABS1	2	-1.08	60.5	-1.16	91.7	inactive
CABS1	3	-0.0816	80.3	-0.65	106	inactive
ANKRD12	1	0.191	85.7	-0.511	110	inactive
ANKRD12	2	-0.66	68.8	-0.358	84.4	inactive
ANKRD12	3	-1.13	59.3	0.133	64	inactive
EBF4	1	-0.575	70.4	-0.032	79.4	inactive
EBF4	2	0.758	97	0.273	101	inactive
EBF4	3	2.56	133	1.97	88.2	inactive
NCOA1	1	2.46	131	1.05	111	inactive
NCOA1	2	0.00308	81.9	-0.403	102	inactive
NCOA1	3	-1.42	53.6	-2.46	114	inactive
ZNF839	1	0.157	85	2.63	47.6	inactive
ZNF839	2	1.49	111	1.18	91.4	inactive
ZNF839	3	1.48	111	0.807	101	inactive
KBTBD4	1	3.51	152	2.79	81.3	active
KBTBD4	2	0.678	95.4	-0.215	113	inactive
KBTBD4	3	0.605	93.9	-0.0441	106	inactive
CIMAP1B	1	-0.222	77.5	-0.0928	88.7	inactive
CIMAP1B	2	0.955	101	1.8	70.2	inactive
CIMAP1B	3	0.492	91.7	0.525	89.2	inactive
CSF2	1	-2.58	30.6	-1.22	47.1	inactive
CSF2	2	0.266	87.2	1.05	73.9	inactive
CSF2	3	0.589	93.6	0.189	99.5	inactive
CSTL1	1	0.305	88	1.17	72.2	inactive
CSTL1	2	0.268	87.2	0.0624	95.9	inactive
CSTL1	3	0.0573	83	0.785	75.4	inactive
SAFB2	1	-1.22	57.6	-1.32	91	inactive
SAFB2	2	1.75	117	0.54	113	inactive
SAFB2	3	1.57	113	1.57	83.6	inactive
ELL2	1	1.85	119	2.43	70.1	inactive
ELL2	2	-0.578	70.4	-0.797	97	inactive
ELL2	3	-0.838	65.2	-0.83	90.7	inactive
ADRA2A	1	-0.965	62.7	-0.781	86.1	inactive
ADRA2A	2	0.437	90.6	-0.0564	103	inactive
ADRA2A	3	-1.8	46.1	-1.53	77	inactive
